This note sets out measurements from the supplement of paper PMC6411743.

± gives the standard deviation of the averaged measurements. The list shows a part of the results.

This test concerns the target T1, LMAN2 (UniProt Q12907).
T1 sequence (whole entry): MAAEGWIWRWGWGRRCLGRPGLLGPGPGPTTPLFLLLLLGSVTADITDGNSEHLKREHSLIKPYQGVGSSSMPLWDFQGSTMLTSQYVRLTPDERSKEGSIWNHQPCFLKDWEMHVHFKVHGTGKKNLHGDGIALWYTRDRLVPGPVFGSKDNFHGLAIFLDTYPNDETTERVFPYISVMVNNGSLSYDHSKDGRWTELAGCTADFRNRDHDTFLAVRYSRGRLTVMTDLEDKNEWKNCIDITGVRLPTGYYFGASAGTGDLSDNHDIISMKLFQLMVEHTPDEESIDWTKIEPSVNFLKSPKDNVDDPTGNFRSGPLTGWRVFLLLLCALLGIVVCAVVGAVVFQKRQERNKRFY
Briefly: NP40-soluble protein abundance relative to vehicle (solubility fold change) (ratio); higher = more soluble protein in presence of GTP. As for the experimental part: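 Solubility proteome profiling in Jurkat crude lysate. Lysate was treated with Mg-GTP (0.1-10 mM) for 10 min at room temperature and 3 min at 37 °C, then solubilised with 0.8% NP40 and benzonase, followed by ultracentrifugation. Proteins were quantified by TMT10 LC-MS/MS; the value is the NP40-soluble abundance relative to the NP40-processed vehicle, from 3 independent experiments.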

On to `Nc1nc2c(ncn2[C@@H]2O[C@H](COP(=O)(O)OP(=O)(O)OP(=O)(O)O)[C@@H](O)[C@H]2O)c(=O)[nH]1` [guanosine triphosphate], for which the NP40-soluble protein abundance (concentration: 0.1mM) turned out to be 0.978 ± 0.075; the NP40-soluble protein abundance (concentration: 0.5mM) was found to be 0.969 ± 0.067; the NP40-soluble protein abundance (concentration: 1mM) is 0.895 ± 0.081; the NP40-soluble protein abundance (concentration: 2mM) worked out at 0.891 ± 0.07; the NP40-soluble protein abundance (concentration: 4mM) came out at 0.891 ± 0.089; the NP40-soluble protein abundance (concentration: 6mM) came to 0.855 ± 0.049. The NP40-soluble protein abundance runs as follows: (concentration: 8mM) 0.858 ± 0.095; (concentration: 10mM) 0.85 ± 0.083.
